This is one part of the list. The exact form of the protein is not confirmed.

For 25 sequences, binding signal (log2 enrichment (interaction score)) results are on record in publication PMC8384837.

The target in this assay is T1, PUM1 PUF domain R5-PHQ R6-SWD C1007P + R1008H + N1043S + Y1044W + Q1047D (UniProt Q14671).
T1 sequence: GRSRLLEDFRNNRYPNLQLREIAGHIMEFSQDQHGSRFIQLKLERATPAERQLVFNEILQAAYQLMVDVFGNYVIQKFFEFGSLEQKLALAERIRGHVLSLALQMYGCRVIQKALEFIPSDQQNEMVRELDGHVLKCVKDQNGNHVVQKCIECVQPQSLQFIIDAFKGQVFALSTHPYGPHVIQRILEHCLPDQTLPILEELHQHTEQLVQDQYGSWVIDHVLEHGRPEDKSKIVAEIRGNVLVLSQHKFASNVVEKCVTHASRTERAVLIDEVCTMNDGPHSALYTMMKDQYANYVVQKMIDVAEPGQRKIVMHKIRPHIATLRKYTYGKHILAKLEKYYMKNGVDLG
As to conditions: yeast three-hybrid, YBZ-1, SC-Leu-His + 0.5 mM 3-AT, 4 days.
Regarding “GGCUAGAACUAGUGGAUCCCCCGGCGCCCGGCGGCUCGAGCCCGGGUAAGAUGAUAUCGUCUGCAUGCCGCCGGGCGCCAUGCCUGCAGGUCGACUCUAGAAAACAUG”, the binding signal (log2 enrichment (interaction score)) is below -7.54.
The same measure for “GGCUAGAACUAGUGGAUCCCCCGGCGCCCGGCGGCUCGAGCCCGGGUAAGUUGAUAAGGUCUGCAUGCCGCCGGGCGCCAUGCCUGCAGGUCGACUCUAGAAAACAUG”: -7.43; for “GGCUAGAACUAGUGGAUCCCCCGGCGCCCGGCGGCUCGAGCCCGGGUAAGUGGCCACUGUCUGCAUGCCGCCGGGCGCCAUGCCUGCAGGUCGACUCUAGAAAACAUG”: -8.48.
For “GGCUAGAACUAGUGGAUCCCCCGGCGCCCGGCGGCUCGAGCCCGGGUAAGUUUGAUUAGUCUGCAUGCCGCCGGGCGCCAUGCCUGCAGGUCGACUCUAGAAAACAUG” the value was below -7.27; for “GGCUAGAACUAGUGGAUCCCCCGGCGCCCGGCGGCUCGAGCCCGGGUAAGUGGUAGCAGUCUGCAUGCCGCCGGGCGCCAUGCCUGCAGGUCGACUCUAGAAAACAUG”, -7.31.
For “GGCUAGAACUAGUGGAUCCCCCGGCGCCCGGCGGCUCGAGCCCGGGUAAGGGGGAACCGUCUGCAUGCCGCCGGGCGCCAUGCCUGCAGGUCGACUCUAGAAAACAUG” the value was -7.79.
Regarding “GGCUAGAACUAGUGGAUCCCCCGGCGCCCGGCGGCUCGAGCCCGGGUAAGAUGUAGGAGUCUGCAUGCCGCCGGGCGCCAUGCCUGCAGGUCGACUCUAGAAAACAUG”, the binding signal (log2 enrichment (interaction score)) is below -7.77.
For “GGCUAGAACUAGUGGAUCCCCCGGCGCCCGGCGGCUCGAGCCCGGGUAAGUGGACACAGUCUGCAUGCCGCCGGGCGCCAUGCCUGCAGGUCGACUCUAGAAAACAUG” the value was below -7.78.
For “GGCUAGAACUAGUGGAUCCCCCGGCGCCCGGCGGCUCGAGCCCGGGUAAGAGGCCAAAGUCUGCAUGCCGCCGGGCGCCAUGCCUGCAGGUCGACUCUAGAAAACAUG” the value was -7.35.
For “GGCUAGAACUAGUGGAUCCCCCGGCGCCCGGCGGCUCGAGCCCGGGUAAGUUGGGAUCGUCUGCAUGCCGCCGGGCGCCAUGCCUGCAGGUCGACUCUAGAAAACAUG”, the binding signal (log2 enrichment (interaction score)) is below -7.08.
“GGCUAGAACUAGUGGAUCCCCCGGCGCCCGGCGGCUCGAGCCCGGGUAAGUCGGAUUGGUCUGCAUGCCGCCGGGCGCCAUGCCUGCAGGUCGACUCUAGAAAACAUG”: the binding signal (log2 enrichment (interaction score)) is below -8.51.
Consider “GGCUAGAACUAGUGGAUCCCCCGGCGCCCGGCGGCUCGAGCCCGGGUAAGAGGGAGACGUCUGCAUGCCGCCGGGCGCCAUGCCUGCAGGUCGACUCUAGAAAACAUG”, for which the binding signal (log2 enrichment (interaction score)) is below -8.
The same measure for “GGCUAGAACUAGUGGAUCCCCCGGCGCCCGGCGGCUCGAGCCCGGGUAAGUGGAGCUAGUCUGCAUGCCGCCGGGCGCCAUGCCUGCAGGUCGACUCUAGAAAACAUG”: -7.27; for “GGCUAGAACUAGUGGAUCCCCCGGCGCCCGGCGGCUCGAGCCCGGGUAAGUCUAAAAGGUCUGCAUGCCGCCGGGCGCCAUGCCUGCAGGUCGACUCUAGAAAACAUG”: -8.18; for “GGCUAGAACUAGUGGAUCCCCCGGCGCCCGGCGGCUCGAGCCCGGGUAAGUGGUCGAAGUCUGCAUGCCGCCGGGCGCCAUGCCUGCAGGUCGACUCUAGAAAACAUG”: below -6.98.
The same measure for “GGCUAGAACUAGUGGAUCCCCCGGCGCCCGGCGGCUCGAGCCCGGGUAAGAUUAAGAAGUCUGCAUGCCGCCGGGCGCCAUGCCUGCAGGUCGACUCUAGAAAACAUG”: below -7.53; for “GGCUAGAACUAGUGGAUCCCCCGGCGCCCGGCGGCUCGAGCCCGGGUAAGUGCAACUGGUCUGCAUGCCGCCGGGCGCCAUGCCUGCAGGUCGACUCUAGAAAACAUG”: -7.13; for “GGCUAGAACUAGUGGAUCCCCCGGCGCCCGGCGGCUCGAGCCCGGGUAAGUGGAGCACGUCUGCAUGCCGCCGGGCGCCAUGCCUGCAGGUCGACUCUAGAAAACAUG”: below -7.15.
For “GGCUAGAACUAGUGGAUCCCCCGGCGCCCGGCGGCUCGAGCCCGGGUAAGGGUAAAGAGUCUGCAUGCCGCCGGGCGCCAUGCCUGCAGGUCGACUCUAGAAAACAUG” the value was -7.26.
On to “GGCUAGAACUAGUGGAUCCCCCGGCGCCCGGCGGCUCGAGCCCGGGUAAGAUUAAAUCGUCUGCAUGCCGCCGGGCGCCAUGCCUGCAGGUCGACUCUAGAAAACAUG”, for which the binding signal (log2 enrichment (interaction score)) was -7.66.
For “GGCUAGAACUAGUGGAUCCCCCGGCGCCCGGCGGCUCGAGCCCGGGUAAGUUCAGACAGUCUGCAUGCCGCCGGGCGCCAUGCCUGCAGGUCGACUCUAGAAAACAUG” the value was below -7.43; for “GGCUAGAACUAGUGGAUCCCCCGGCGCCCGGCGGCUCGAGCCCGGGUAAGUCUACAUAGUCUGCAUGCCGCCGGGCGCCAUGCCUGCAGGUCGACUCUAGAAAACAUG”, -8.34; for “GGCUAGAACUAGUGGAUCCCCCGGCGCCCGGCGGCUCGAGCCCGGGUAAGGUAAAACAGUCUGCAUGCCGCCGGGCGCCAUGCCUGCAGGUCGACUCUAGAAAACAUG”, -8.54.
The same measure for “GGCUAGAACUAGUGGAUCCCCCGGCGCCCGGCGGCUCGAGCCCGGGUAAGCAUAAAAUGUCUGCAUGCCGCCGGGCGCCAUGCCUGCAGGUCGACUCUAGAAAACAUG”: below -7.72.
The same measure for “GGCUAGAACUAGUGGAUCCCCCGGCGCCCGGCGGCUCGAGCCCGGGUAAGUUCAAUGAGUCUGCAUGCCGCCGGGCGCCAUGCCUGCAGGUCGACUCUAGAAAACAUG”: -8.45.
